These results are taken from patent US11319303B2 (WIGEN BIOMEDICINE TECHNOLOGY (SHANGHAI) CO., LTD., priority 2017, dated 2022).

In general, IC50 refers to the point on the concentration scale where inhibition reaches its midpoint. Read a high IC50 as a need for much substance.

This experiment deals with LC3B (Homo sapiens, UniProt Q9GZQ8). Nature of the experiment: Fluorescence Polarization (FP) Assay: displacement of FITC-labeled peptide from GST-LC3B. The format is binding. The following applies: GST-LC3B 180 nM, FITC-labeled peptide 18 nM, 25° C. On the technique in general: Polarisation of emitted light reports the rotation of a fluorescent probe.

SMILES strings stand for the structures. Structures were worked out from names or drawings and are uncertain.

`COC(=O)c1cccc(C2CC(=O)C(=CNCCN3CCOCC3)C(=O)C2)c1` (stereo not drawn) yielded an IC50 below 3 µM.

`CN(C)CCNC=C1C(=O)CC(c2ccccc2[N+](=O)[O-])NC1=O` (stereo not drawn) registered an IC50 of 15 to 100 µM.

The compound `O=C1CC(c2cccc3cnccc23)CC(=O)C1=CNCCN1CCN(CCO)CC1` (stereo not drawn) yielded an IC50 of 15 to 100 µM.
